T1: LRP6e1e2 (UniProt O75581 20-630, limits assumed, C-terminally biotinylated)
T1 construct: domain: E1E2; also called LRP6 E1E2 domains
T1 sequence (looked up): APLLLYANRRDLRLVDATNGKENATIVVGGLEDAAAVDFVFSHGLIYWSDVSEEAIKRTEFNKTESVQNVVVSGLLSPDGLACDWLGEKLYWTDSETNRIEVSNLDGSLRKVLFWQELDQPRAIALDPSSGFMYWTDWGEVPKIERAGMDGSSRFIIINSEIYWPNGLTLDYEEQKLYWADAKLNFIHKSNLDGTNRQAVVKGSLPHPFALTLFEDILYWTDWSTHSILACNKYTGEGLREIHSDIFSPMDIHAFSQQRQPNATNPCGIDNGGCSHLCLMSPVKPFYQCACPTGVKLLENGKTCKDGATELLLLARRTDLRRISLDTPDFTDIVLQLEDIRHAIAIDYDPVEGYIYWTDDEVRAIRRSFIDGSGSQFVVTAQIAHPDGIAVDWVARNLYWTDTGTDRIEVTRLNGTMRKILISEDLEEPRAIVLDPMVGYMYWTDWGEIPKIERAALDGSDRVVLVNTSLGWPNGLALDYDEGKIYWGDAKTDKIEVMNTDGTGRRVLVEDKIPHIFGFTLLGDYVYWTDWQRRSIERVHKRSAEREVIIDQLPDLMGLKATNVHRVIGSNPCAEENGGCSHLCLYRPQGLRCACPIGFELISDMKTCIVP

Sequences of proteins named here, by UniProt entry; tags and fusion partners are left off.
UniProt O75197: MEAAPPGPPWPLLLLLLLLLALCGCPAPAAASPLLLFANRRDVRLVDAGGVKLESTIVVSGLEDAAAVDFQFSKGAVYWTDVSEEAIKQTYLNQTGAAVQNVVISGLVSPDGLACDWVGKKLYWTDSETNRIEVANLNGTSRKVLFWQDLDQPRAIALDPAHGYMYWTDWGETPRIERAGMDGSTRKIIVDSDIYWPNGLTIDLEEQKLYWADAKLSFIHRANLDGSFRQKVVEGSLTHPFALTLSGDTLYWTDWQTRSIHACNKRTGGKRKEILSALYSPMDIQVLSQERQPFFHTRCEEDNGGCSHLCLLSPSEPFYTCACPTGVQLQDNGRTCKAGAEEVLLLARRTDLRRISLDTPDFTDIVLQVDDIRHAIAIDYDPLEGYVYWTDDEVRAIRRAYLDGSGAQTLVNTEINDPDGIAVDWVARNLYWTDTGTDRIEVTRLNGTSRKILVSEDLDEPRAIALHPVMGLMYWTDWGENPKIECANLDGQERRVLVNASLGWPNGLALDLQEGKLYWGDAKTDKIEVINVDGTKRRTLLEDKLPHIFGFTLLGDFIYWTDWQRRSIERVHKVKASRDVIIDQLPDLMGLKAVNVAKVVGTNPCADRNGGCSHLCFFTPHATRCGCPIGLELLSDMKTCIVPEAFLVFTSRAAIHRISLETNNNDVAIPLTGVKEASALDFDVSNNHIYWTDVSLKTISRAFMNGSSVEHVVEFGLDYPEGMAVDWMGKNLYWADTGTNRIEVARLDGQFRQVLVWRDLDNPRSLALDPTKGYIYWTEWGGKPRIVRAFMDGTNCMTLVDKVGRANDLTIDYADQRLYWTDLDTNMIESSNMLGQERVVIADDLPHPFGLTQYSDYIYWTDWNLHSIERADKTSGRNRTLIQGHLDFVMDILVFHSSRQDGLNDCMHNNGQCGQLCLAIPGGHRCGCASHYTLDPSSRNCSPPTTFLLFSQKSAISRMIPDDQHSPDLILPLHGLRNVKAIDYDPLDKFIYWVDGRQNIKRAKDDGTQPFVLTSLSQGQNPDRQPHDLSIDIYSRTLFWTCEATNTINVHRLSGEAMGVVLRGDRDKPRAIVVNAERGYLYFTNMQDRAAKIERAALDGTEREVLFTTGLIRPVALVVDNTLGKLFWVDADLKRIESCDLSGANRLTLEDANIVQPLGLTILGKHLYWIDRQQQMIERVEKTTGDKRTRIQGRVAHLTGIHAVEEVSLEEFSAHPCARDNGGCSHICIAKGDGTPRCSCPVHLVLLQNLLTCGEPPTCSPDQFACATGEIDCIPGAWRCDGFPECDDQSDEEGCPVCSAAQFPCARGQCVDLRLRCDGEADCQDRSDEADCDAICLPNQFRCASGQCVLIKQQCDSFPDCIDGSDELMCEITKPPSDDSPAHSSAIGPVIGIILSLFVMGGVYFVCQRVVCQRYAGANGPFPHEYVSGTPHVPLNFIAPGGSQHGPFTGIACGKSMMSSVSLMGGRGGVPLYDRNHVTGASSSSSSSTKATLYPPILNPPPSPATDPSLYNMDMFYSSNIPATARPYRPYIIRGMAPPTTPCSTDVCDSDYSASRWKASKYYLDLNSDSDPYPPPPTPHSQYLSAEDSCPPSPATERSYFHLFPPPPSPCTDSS

B1: 001S-F11 (VHH)
VHH: QVQLVESGGGLVQAGGSLRLSCAASGRTFSSYAMSWFRQAPGKEREFVAVIGRSGGIKYYADSVKGRFTISRDNTINTVYLQMNNLTPEDTAIYYCATRRPFNSYNTEQSYDSWGRGTLVTVSS
B2: 009S-F03 (VHH)
VHH: B1 VHH with Q1D
B3: 009S-D03 (VHH)
VHH: DVQLVESGGGLVQPGGSLRLSCAAPGSIFSDGAMGWYRQAPGKQRELVAVISGGRTGYADFVKGRFTISRDNGKNTVNLQMNRLEPEDTAVYFCNTYPFPIYKKGYPFWGQGTQVTVSS
B4: 009S-G02 (VHH)
VHH: AVQLVESGGGLVQAGGSLRLSCGVSGSIFSIYAMGWYRQAPGKERELVAVITSGGKTVYADSVKGRFTITEDAAKNTVYLQMNSLKAEDTAVYYCYADSRSSWYDEYLEHWGRGTLVTVSS
B5: 009S-H03 (VHH)
VHH: B4 VHH with A1D, G16E, G23A, V24A, Y32N, A33T, R113Q
B6: 009S-A04 (VHH)
VHH: AVQLVESGGGLVQAGGSLRLSCAASGRTLSAYDMGWFRQAPGKERELVGGIRWSGGTTLYPDSVKGRFTISRDNAKNTVYLQMNSLKPEDSAVYYCYARTVIGGFGAFRAHWGQGTQVTVSS
B7: 009S-A03 (VHH)
VHH: QVQLVESGGGLVQAGDSLRLSCVVSGRTFSVYGVGWFRQAPGKEREVVAAVSASGGYTWYADSVKGRFTISRDNAKSTAFLQMNSLQPEDTAVYYCKAAPRWGGATAYWGQGTQVTVSS
B8: 008S-D01 (VHH)
VHH: DVQLVESGGGLVQPGGSLRLSCTSSANINSIETLGWYRQAPGKQRELIANMRGGGYMKYAGSLKGRFTMSTESAKNTMYLQMNSLKPEDTAVYYCYVKLRDDDYVYRGQGTQVTVSS
B9: 009S-D04 (VHH)
VHH: QVKLEESGGGLVQPGGSLRLSCETSATIVSIYRINWYRQAPGKQREWVAGITSSGRTIYADSVKGRFTISRDNAKNTVYLQMNNLKPEDTAVYYCNAASTVTAWPYYGPDYWGKGTLVTVSS

Residue numbers refer to the chain shown, from its start. These are yes or no findings as the source states them, for the method shown. Some binding calls cover weakened binding; strength is not graded here.

In the first assay the target is T1, LRP6e1e2. The experiment in a line: Confirmed Binding column of Table 1A.
On to B1, for which the binding result is reported as “binds”.
On the same count and under the same terms, as for B2, the entry is “binds”; as for B3, “binds”.
On the same count and under the same terms, as for B4, the entry is “binds”.
Same read-out and setting: as for B5, the entry is “binds”; as for B6, “binds”; as for B7, “binds”.

Another assay has as its target LRP5 (UniProt O75197). The experiment in a line: Confirmed Binding column of Table 1A.
In the case of B8, the binding entry is recorded as “binds”.

A further assay has as its target T1, LRP6e1e2. Description: Octet BLI. Here is the method: Binding kinetics of antibody fragments to LRP5 extracellular domain (LRP5 ECD) and/or LRP6 extracellular domain (LRP6 ECD) protein targets was determined by bio-layer interferometry (BLI) using Octet Red 96 (PALL ForteBio, Fremont, Calif.) instruments at 30° C., 1000 rpm with streptavidin (SA) biosensors. C-terminal biotinylated LRP ECD recombinant protein was diluted to 20 nM in the running buffer (PBS, 0.05% Tween-20, 0.5% BSA, pH 7.2) and captured to the SA biosensor until coupling length reached 0.2 nm. Following capture of the LRP5 or LRP6, the SA biosensor with captured biotinylated-LRP5 or biotinylated LRP6 was dipped into wells containing the relevant antibody fragment at […] (0, 1.37, 4.12, 12.4, 37, 111.1, 333.3, 1000 nM) in running buffer, plus a well with only running buffer as a reference channel. KD was determined by global fitting, 1:1 binding model according to manufacturer recommended settings.
B9: the binding entry is listed as “binds”.
Turning to B2, the binding result is “binds”.
Still for that read-out and setting: in the case of B3 it was “binds”.
The same measure, in the same setting: as for B4, the entry is “binds”; as for B5, “binds”.
Consider B6, for which the binding entry is on record as “binds”.
In the case of B7, the binding entry is “binds”.

The next assay deals with T1, LRP6e1e2. The experiment in a line: Octet BLI or BIAcore SPR.
Turning to B1, the binding entry is recorded as “binds”.
The same measure, in the same setting: as for B2, the entry is “binds”; as for B3, “binds”.
Still for that read-out and setting: in the case of B4 it was “binds”; in that of B5, “binds”; in that of B6, “binds”.
For B7, the binding entry is on record as “binds”.

In another assay the target is LRP5 (UniProt O75197). Description: Octet BLI or BIAcore SPR.
Consider B8, for which the binding result is given as “binds”.

The values are drawn from patent US20210079089A1 (SURROZEN OPERATING, published 2021).
